Experimental findings from the supplement of paper PMC12819154, “High-throughput peptide-centric local stability assay extends protein–ligand identification to membrane proteins, tissues and bacteria” (Nature Structural & Molecular Biology, 2025) are described below.

Amino acid sequences for entries named in this document (tags omitted). A change or cut given only in a name is not applied to a line headed by its entry.
UniProt Q3UM29: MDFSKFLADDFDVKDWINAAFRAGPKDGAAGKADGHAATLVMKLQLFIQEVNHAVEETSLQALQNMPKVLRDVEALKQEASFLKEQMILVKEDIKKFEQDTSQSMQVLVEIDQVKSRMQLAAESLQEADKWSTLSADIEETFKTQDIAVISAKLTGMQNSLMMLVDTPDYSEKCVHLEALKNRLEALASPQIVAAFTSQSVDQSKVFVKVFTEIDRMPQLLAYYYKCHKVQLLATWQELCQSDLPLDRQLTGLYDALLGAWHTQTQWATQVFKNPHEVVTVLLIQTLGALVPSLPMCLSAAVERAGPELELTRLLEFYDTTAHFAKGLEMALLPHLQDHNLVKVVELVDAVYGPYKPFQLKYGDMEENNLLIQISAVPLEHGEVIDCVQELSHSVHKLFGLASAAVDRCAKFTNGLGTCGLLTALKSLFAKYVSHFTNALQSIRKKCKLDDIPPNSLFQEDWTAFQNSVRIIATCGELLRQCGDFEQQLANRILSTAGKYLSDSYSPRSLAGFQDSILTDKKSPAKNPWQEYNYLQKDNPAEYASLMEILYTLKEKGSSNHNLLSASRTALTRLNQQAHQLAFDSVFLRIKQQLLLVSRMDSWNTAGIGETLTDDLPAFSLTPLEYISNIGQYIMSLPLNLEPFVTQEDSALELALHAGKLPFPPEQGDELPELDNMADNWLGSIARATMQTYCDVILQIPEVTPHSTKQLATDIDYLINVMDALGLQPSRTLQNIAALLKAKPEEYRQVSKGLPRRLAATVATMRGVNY
UniProt Q5DTU0: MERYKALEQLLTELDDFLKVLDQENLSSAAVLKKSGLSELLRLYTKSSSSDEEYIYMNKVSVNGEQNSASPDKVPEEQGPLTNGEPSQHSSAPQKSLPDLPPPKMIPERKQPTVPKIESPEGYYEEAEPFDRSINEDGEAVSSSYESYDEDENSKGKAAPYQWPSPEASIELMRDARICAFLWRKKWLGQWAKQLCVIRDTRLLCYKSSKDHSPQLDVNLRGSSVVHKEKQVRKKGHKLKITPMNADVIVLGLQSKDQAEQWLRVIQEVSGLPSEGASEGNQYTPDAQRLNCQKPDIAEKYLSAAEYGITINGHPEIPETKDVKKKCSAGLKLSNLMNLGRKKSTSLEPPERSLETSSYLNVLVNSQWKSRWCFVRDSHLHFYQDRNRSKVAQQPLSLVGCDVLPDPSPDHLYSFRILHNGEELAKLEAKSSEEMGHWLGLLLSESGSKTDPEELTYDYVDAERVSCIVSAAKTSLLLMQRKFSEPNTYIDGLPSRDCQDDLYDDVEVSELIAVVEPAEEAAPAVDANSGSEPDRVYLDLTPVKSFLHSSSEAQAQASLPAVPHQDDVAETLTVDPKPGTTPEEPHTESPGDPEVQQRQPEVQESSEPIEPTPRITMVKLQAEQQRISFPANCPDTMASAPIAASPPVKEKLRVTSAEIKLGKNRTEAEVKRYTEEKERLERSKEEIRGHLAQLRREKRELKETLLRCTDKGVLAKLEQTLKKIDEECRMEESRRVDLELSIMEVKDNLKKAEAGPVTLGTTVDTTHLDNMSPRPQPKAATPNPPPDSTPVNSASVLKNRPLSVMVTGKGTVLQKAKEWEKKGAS
UniProt Q571G4: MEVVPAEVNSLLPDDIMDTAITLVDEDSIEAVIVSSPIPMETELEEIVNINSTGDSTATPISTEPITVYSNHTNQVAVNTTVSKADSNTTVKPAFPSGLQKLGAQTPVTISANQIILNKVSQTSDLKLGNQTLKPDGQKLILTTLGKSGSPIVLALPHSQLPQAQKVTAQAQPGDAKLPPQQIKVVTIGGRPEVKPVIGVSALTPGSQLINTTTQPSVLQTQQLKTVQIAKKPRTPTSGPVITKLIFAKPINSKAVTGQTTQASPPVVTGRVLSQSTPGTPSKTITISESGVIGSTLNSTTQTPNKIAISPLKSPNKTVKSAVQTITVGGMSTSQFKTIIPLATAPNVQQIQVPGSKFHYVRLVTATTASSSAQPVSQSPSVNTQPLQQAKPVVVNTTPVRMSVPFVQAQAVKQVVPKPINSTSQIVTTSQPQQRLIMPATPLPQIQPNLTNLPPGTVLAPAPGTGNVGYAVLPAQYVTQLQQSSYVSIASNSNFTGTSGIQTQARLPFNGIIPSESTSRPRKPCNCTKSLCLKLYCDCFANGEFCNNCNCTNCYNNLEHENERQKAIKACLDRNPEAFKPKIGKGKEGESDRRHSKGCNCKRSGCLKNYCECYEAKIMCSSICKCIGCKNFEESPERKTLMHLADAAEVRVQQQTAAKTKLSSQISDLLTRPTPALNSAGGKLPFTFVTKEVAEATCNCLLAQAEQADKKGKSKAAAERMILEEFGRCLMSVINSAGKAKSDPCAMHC
UniProt Q3UDE2: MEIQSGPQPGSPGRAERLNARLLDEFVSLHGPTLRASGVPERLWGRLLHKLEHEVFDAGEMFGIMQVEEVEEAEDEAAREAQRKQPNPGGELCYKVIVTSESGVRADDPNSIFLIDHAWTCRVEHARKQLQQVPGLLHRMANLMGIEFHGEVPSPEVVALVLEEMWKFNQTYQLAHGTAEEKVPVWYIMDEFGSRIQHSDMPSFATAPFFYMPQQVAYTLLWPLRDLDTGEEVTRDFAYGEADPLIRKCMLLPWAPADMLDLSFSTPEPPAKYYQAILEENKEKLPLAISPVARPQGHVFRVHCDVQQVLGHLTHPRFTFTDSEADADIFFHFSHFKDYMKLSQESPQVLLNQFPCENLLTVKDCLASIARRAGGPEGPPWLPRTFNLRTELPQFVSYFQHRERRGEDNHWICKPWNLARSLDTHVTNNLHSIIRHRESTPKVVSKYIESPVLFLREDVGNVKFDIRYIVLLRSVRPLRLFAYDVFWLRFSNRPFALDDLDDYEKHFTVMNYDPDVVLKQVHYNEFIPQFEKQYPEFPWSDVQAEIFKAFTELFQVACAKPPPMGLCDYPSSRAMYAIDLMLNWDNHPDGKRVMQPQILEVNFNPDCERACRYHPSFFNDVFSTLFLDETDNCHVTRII
UniProt Q3UPF5: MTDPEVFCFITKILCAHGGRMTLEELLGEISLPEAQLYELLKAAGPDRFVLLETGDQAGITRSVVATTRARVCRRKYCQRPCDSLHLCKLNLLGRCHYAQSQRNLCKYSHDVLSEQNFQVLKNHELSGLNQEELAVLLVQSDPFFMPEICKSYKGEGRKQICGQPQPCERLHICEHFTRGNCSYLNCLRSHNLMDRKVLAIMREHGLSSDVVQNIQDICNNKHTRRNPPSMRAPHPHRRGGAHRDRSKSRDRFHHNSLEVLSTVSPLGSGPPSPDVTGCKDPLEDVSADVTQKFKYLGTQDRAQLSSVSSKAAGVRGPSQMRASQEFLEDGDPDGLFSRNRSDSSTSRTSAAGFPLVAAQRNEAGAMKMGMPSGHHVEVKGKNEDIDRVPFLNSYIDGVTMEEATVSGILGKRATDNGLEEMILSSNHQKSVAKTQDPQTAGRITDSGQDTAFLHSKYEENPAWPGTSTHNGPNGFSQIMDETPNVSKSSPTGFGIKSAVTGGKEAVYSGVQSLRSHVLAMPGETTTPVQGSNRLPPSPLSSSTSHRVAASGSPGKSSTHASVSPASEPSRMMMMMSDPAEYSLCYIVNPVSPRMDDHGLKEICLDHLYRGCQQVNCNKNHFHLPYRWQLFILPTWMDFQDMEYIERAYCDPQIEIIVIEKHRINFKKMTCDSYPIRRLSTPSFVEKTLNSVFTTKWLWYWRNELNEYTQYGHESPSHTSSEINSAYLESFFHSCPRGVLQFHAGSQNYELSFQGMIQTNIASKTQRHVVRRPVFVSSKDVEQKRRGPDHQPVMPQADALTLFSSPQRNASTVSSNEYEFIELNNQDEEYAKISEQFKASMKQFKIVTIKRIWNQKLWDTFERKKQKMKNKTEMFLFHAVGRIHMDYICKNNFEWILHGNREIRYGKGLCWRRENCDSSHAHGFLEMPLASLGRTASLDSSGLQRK

Some of the results follow. Most entries show no effect beyond the scatter of the controls.

Compound in this experiment: CN[C@@H]1C[C@H]2O[C@@](C)([C@@H]1OC)n1c3ccccc3c3c4c(c5c6ccccc6n2c5c31)C(=O)NC4 [staurosporine]
As to the kind of experiment: log2 fold change of tryptic peptide abundance, ligand vs vehicle (limited proteolysis) (log2 ratio); higher = more trypsin-susceptible (destabilized). Particulars: ligand concentration: 20 uM; sample: mouse liver crude lysate; replicate design: treated separately.
In the case of “UniProt Q3UM29 (peptide sequence: GLEMALLPHLQDHNLVK, peptide start residue: 327)”, the log2 fold change is -0.251.

“UniProt Q5DTU0 (peptide sequence: YTEEKER, peptide start residue: 673)”: the log2 fold change is -0.607.

For “UniProt Q571G4 (peptide sequence: ADSNTTVKPAFPSGLQK, peptide start residue: 85)”, the log2 fold change is 0.518.

“UniProt Q3UDE2 (peptide sequence: VHCDVQQVLGHLTHPR, peptide start residue: 302)”: the log2 fold change is -0.976.

“UniProt Q3UPF5 (peptide sequence: AQLSSVSSK, peptide start residue: 303)”: the log2 fold change was -0.144.
